Reference: publication PMC11221534, “A minimal RNA substrate with dual fluorescent probes enables rapid kinetics and provides insight into bacterial RNase P active site interactions”
For at least one entry, the source does not settle the construct or the ends of the probe. Protein sequences can lack the tags named with them.

Assays:
[1] = target: T1, E. coli RNase P holoenzyme, P RNA A333U (Escherichia coli) (UniProt P0A7Y8); experiment: single-turnover kinetics by PAGE (K'); conditions: 17.5 mM Mg2+, minor effect on K', value in Table 2, not in material; 2-aminopurine at position 8 (N-2) as printed, written A; Table 1 appears to swap the Cy3 between 5'Cy3-MD1 and 5'Ap(-2)-MD1; 50 mM MES pH 6, 100 mM NaCl, 17.5 mM MgCl2 (or CaCl2), 0.015% Triton X-100 reduced, 37 C (PAGE single turnover); stopped-flow in similar buffer; recombinant protein; label: 5' Cy3 on strand 1
T1 sequence (looked up, limits assumed): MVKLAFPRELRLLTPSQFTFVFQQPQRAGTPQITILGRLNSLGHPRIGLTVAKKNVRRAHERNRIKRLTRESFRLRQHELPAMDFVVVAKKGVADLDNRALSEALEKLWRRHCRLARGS

[2] = target: T2, E. coli RNase P holoenzyme, P RNA G332U (Escherichia coli) (UniProt P0A7Y8); experiment: single-turnover kinetics by PAGE (K'); conditions: 17.5 mM Mg2+, indistinguishable from WT, value in Table 2, not in material; 2-aminopurine at position 8 (N-2) as printed, written A; Table 1 appears to swap the Cy3 between 5'Cy3-MD1 and 5'Ap(-2)-MD1; 50 mM MES pH 6, 100 mM NaCl, 17.5 mM MgCl2 (or CaCl2), 0.015% Triton X-100 reduced, 37 C (PAGE single turnover); stopped-flow in similar buffer; recombinant protein; label: 5' Cy3 on strand 1
T2 sequence (looked up, limits assumed): T1 sequence (looked up, limits assumed)

## ACCCAAAAUGGUCCGGGCGGG / CCCGUCCGGACCGCCA [5'Cy3-MD1]
[1]
  binding result: binds
[2]
  binding result: binds
